# Measured values from article PMC8518066 (Chemistry (Weinheim an Der Bergstrasse, Germany), 2021).
# Experiment: general procedure: solution-phase peptide synthesis; HBTU/DIPEA; HATU/DIPEA
substance,measurement,setting,value
"((S)-1-((2R,4R,5S)-5-((S)-2-Ammonio-3,3-dimethylbutanamido)-2-benzyl-4-hydroxy-6-methylheptanoyl)piperidine-2-carbonyl)-L-tryptophanate",step yield,"late stage modification step, 2 steps from 36b",25%
"((2R,4R,5S)-5-((S)-2-Ammonio-3-methylbutanamido)-4-hydroxy-2-(4-hydroxybenzyl)-6-methylheptanoyl)-L-prolyl-L-tryptophanate",step yield,"late stage modification step, 2 steps from 30c",27%
"Methyl ((2R,4R,5S)-5-((S)-2-((tert-butoxycarbonyl)amino)-3-methylbutanamido)-2-(4-fluorobenzyl)-4-hydroxy-6-methylheptanoyl)-L-prolyl-L-tryptophanate",step yield,"coupling step, 2 steps from 28a",48%
"Methyl (2S)-2-{[(2S)-1-[(2R,4S,5S)-2-benzyl-5-{[(tert-butoxy)carbonyl]amino}-4-[(tert-butyldimethylsilyl)oxy]-6-methylheptanoyl]pyrrolidin-2-yl]formamido}-3-(1H-indol-3-yl)propanoate",step yield,"coupling step, from 7",74% from 7%
"Methyl ((2R,4R,5S)-5-((S)-2-amino-3-methylbutanamido)-4-hydroxy-2-(4-hydroxybenzyl)-6-methylheptanoyl)-L-prolyl-L-tryptophanate",step yield,late stage modification step,31%
"Methyl ((2R,4R,5S)-5-((S)-2-((tert-butoxycarbonyl)amino)-3-methylbutanamido)-4-hydroxy-6-methyl-2-(4-methylbenzyl)heptanoyl)-L-prolyl-L-tryptophanate",step yield,"coupling step, 2 steps from 28b",38%
"Methyl (2S)-2-{[(2S)-1-[(2R,4S,5S)-2-benzyl-5-[(2S)-2-{[(tert-butoxy)carbonyl]amino}-3-methylbutanamido]-4-hydroxy-6-methylheptanoyl]pyrrolidin-2-yl]formamido}-3-(1H-indol-3-yl)propanoate",step yield,"coupling step, 2 steps from 8","52%, 2 steps, from 8%"
"((2R,4R,5S)-5-((S)-2-Ammonio-3-methylbutanamido)-2-benzyl-4-hydroxy-6-methylheptanoyl)-L-prolyl-L-tryptophanate (HER)",step yield,late stage modification step,44%
"(2S)-2-{[(2S)-1-[(2R,4S,5S)-5-[(2S)-2-Azaniumyl-3-methylbutanamido]-2-benzyl-4-hydroxy-6-methylheptanoyl]pyrrolidin-2-yl]formamido}-3-(1H-indol-3-yl)propanoate",step yield,"late stage modification step, 2 steps, from 9",46%
"((2R,4R,5S)-5-((S)-2-Ammonio-3-methylbutanamido)-2-(4-fluorobenzyl)-4-hydroxy-6-methylheptanoyl)-L-prolyl-L-tryptophanate",step yield,late stage modification step,29%
"((2R,4R,5S)-5-((S)-2-Ammonio-3-methylbutanamido)-4-hydroxy-6-methyl-2-(4-methylbenzyl)heptanoyl)-L-prolyl-L-tryptophanate",step yield,"late stage modification step, 2 steps from 30b",36%
"((S)-1-((2R,4R,5S)-5-((S)-2-Ammonio-3-methylbutanamido)-2-benzyl-4-hydroxy-6-methylheptanoyl)piperidine-2-carbonyl)-L-tryptophanate",step yield,"late stage modification step, 2 steps from 37a",31%
